Measurements taken from publication PMC11106307.
These are yes or no findings as the source states them, for the method shown. In cells and extracts the contact can be indirect. Some results given as binding are weak or reduced against the parent protein; the word gives no strength. For part of these data: Tags and fused reporters may be left off the sequences shown.

Chains of the proteins cited; added tags and fusions are not shown. Lines headed by an entry give the natural chain unless they say otherwise; changes in a name come on top.
UniProt Q16665: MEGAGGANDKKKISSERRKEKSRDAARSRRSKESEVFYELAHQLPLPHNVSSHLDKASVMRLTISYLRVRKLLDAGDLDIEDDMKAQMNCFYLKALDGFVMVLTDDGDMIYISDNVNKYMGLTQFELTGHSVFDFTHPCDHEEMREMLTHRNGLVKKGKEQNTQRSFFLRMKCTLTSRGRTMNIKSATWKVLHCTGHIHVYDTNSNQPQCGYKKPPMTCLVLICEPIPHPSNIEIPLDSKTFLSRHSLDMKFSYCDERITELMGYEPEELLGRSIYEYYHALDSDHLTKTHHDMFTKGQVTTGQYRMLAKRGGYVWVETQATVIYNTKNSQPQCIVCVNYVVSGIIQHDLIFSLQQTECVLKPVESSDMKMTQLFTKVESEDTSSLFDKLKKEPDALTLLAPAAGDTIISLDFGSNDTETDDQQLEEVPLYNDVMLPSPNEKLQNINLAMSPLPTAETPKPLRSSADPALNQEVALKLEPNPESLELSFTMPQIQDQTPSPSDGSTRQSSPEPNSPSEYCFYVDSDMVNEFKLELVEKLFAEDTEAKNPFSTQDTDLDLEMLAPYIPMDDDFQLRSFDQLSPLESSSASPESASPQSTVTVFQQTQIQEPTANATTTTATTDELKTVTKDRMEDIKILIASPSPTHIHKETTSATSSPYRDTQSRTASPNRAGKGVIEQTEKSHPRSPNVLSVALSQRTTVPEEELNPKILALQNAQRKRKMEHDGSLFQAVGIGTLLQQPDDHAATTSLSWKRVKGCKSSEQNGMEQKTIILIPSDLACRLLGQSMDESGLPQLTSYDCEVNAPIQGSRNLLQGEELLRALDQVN

Columns and labels:
[1] = molecular target: T1, Flag-TRIM1 (wild type, full length) (human (cDNA from SW480 cells)) (UniProt Q9UJV3); experiment: co-IP; SW480 cells co-transfected with the indicated plasmids; lysed in buffer A (25 mM Tris-HCl pH 7.5, 150 mM NaCl, 10% glycerol, 1% Triton X-100, protease inhibitors); anti-Flag or anti-GFP immunoprecipitation, four washes, immunoblotting
T1 sequence: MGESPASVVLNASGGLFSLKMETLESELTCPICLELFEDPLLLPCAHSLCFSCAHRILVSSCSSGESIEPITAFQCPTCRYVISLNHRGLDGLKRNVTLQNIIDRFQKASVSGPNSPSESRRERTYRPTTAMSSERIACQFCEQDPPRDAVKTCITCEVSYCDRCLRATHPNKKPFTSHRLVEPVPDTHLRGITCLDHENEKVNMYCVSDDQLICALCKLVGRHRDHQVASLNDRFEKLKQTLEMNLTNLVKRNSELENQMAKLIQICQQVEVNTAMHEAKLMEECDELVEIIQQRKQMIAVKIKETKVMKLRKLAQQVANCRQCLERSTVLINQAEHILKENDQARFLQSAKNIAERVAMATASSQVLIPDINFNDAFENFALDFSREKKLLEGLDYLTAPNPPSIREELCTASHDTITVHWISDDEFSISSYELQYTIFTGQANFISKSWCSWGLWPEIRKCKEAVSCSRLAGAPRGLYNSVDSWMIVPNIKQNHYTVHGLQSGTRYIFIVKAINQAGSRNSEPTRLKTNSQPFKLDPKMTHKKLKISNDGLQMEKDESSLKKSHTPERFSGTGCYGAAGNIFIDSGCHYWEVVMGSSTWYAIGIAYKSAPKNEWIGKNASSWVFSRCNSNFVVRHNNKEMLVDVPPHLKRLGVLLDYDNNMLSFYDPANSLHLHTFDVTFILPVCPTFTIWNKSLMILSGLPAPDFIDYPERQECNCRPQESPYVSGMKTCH

[2] = molecular target: T2, TRIM1 (endogenous) (human (endogenous in SW480)) (UniProt Q9UJV3); experiment: co-IP; endogenous proteins of SW480 cells; lysed in buffer A; anti-TRIM1 immunoprecipitation, immunoblotting
T2 sequence: T1 sequence

Row | binding [1] | binding [2] | Substance
1 | binds |  | GFP-HIF1α (wild type) (from UniProt Q16665 1-826)
2 | binds |  | GFP-HIF1α K214R (from UniProt Q16665 1-826)
3 |  | binds | HIF1α (endogenous) (from UniProt Q16665 1-826)
